Some results were stated once for a whole list of compounds, not compound by compound.
How the values were obtained:
Type in all cases: in vivo
Sphaerotheca fuliginea = assay: Sphaerotheca-Test (Cucumber)/protective; details: protective, application rate 750 g/ha, evaluation 7 days after inoculation
Podosphaera leucotricha = assay: Podosphaera-test (Apple)/protective; details: protective, application rate 100 g/ha, evaluation 10 days after inoculation
Venturia inaequalis = assay: Venturia - Test (Apple)/protective; details: protective, application rate 100 g/ha, evaluation 10 days after inoculation
Botrytis cinerea = assay: Botrytis - Test (Bean)/protective; details: protective, application rate 500 g/ha, evaluation 2 days after inoculation

Row | SMILES | efficacy (Sphaerotheca fuliginea) | efficacy (Podosphaera leucotricha) | efficacy (Venturia inaequalis) | efficacy (Botrytis cinerea)
1 | Cc1nc2nc(Cl)c(-c3cc(F)ccc3F)c(NC(C)[Si](C)(C)C)n2n1 (stereo not drawn) [Example 17] | more than 90% | – | – | –
2 | CC(C)c1nc2nc(Cl)c(-c3cc(F)ccc3F)c(NC(C)[Si](C)(C)C)n2n1 (stereo not drawn) [Example 15] | more than 90% | – | – | –
3 | C[Si](C)(C)CNc1c(-c2c(F)cc(F)cc2F)c(Cl)nc2ncnn12 [Example 4] | more than 90% | more than 90% | more than 90% | more than 90%
4 | CC(Nc1c(-c2c(F)cc(F)cc2F)c(Cl)nc2ncnn12)[Si](C)(C)C (stereo not drawn) [Example 2] | – | more than 90% | more than 90% | more than 90%
5 | C[Si](C)(C)CNc1c(-c2ccc(F)cc2Cl)c(Cl)nc2ncnn12 [Example 1] | – | more than 90% | more than 90% | more than 90%

Reference: patent publication US20070293514A1, “Triazolopyrimidines” (priority 2003, published 2007)
